For assay [1], the target named is T1, BCL7A, full length human (isoform Q4VC05-2, 231 amino acids) (human), Q4VC05.
T1 chain: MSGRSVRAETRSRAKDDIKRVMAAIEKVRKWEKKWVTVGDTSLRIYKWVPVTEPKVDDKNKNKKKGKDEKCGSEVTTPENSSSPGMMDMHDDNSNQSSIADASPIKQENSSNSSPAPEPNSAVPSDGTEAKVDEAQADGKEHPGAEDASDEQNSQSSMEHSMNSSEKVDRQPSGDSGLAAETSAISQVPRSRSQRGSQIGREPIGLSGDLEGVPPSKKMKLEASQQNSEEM
As to the kind of experiment: AUC. Conditions: remark: other sources report otherwise.

The target in assay [2] is T1, BCL7A, full length human (isoform …). Kind of assay: SEC-MALS. Conditions: remark: other sources report otherwise.

No constants are given. Whether binding was seen depends on the method and setting.

B1: BCL7A, full length human (isoform Q4VC05-2, 231 amino acids), Q4VC05-2 1-231 (protein)
chain: T1 chain
With B1, the binding result in assay [1] and in assay [2] was “no binding” in each case.

For the origin of these results see doi:10.1101/2023.03.17.532992.
